These are yes or no findings as the source states them, for the method shown. Binding seen in cells or lysates may run through a third protein. A yes stands for co-enrichment or nearness to the bait. Other partners may have been found.
Molecular target: T1, p15INK4b-related sequence/regulation of nuclear pre-mRNA domain-containing protein 1A (RPRD1A) (human (endogenous in MHCCLM3)) (UniProt Q96P16)
T1 sequence: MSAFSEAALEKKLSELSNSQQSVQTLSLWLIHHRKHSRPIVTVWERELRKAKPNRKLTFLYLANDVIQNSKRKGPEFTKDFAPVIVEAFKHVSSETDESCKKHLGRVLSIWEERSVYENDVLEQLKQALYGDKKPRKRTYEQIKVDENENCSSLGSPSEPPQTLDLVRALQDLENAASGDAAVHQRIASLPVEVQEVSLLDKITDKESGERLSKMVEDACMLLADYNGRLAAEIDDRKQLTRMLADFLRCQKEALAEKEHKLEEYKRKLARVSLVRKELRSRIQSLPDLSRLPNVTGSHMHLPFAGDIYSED
Experiment: affinity purification with mass spectrometry; immunoprecipitation from MHCCLM3 cells with antibody against RPRD1A, SDS-PAGE, coomassie staining, indicated bands excised for mass spectrometry

Chains of the proteins cited; added tags and fusions are not shown.
UniProt P19474: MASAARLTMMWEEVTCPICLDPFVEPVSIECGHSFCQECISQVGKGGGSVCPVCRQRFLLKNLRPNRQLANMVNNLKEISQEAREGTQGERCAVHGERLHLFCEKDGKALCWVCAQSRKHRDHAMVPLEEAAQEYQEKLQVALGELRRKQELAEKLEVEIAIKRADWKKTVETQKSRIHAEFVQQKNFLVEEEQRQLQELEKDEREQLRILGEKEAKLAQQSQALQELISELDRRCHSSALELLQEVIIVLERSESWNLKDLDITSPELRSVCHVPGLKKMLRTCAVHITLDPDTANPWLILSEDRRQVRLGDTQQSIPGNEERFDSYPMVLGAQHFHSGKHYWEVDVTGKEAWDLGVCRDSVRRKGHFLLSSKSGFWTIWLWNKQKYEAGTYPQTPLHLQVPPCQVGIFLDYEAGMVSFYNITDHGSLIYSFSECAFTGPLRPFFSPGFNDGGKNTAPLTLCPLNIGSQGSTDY

binding: binds
Substance: TRIM21 (from UniProt P19474 1-475)

From article PMC8683478
